Reference: US20180327493A1
No constants are given. Whether binding was seen depends on the method and setting. Some results given as binding are weak or reduced against the parent protein; the word gives no strength.

Target: T1, murine CD84 on cells (B220+CD5+ splenic cells of TCL-1 mice, M210B4 stromal cells) (mouse) (UniProt Q18PI6)
T1 sequence (looked up): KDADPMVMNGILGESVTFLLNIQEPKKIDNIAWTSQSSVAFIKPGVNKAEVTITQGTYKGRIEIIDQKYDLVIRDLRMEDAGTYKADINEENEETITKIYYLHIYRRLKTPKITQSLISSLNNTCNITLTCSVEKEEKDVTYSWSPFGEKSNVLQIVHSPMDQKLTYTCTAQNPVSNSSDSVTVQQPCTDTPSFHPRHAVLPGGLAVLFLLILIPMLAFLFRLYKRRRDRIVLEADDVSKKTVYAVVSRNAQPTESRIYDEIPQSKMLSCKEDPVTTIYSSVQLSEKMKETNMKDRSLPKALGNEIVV
Experiment: incubation with B220+CD5+ splenic cells of TCL-1 mice; cross-reactivity inferred from Annexin-7AAD cell death

B1: anti-CD84 antibody from the B4 hybridoma (antibody, V domains shown)
VH: EVKLVESGAELARPGASVKLSCKASGYTFTSYWMQWVKQRPGQGLEWIGAIYPGDGDTRYTQKFKGKATLTADKSSSTAYMQLSSLASEDSAVYYCARLLRTYWYFDVWGAGTTVTVSS
VL: DIVLTQSHKFMSTSVGDRVSITCKASQDVGTAVAWYQQKPGQSPKLLIYWASTRHTGVPDRFTGSGSGTDFTLTISNVQSEDLADYFCQQYSSYPYTFGGGTKLELKR
binding: binds
